# Measurements published in patent publication US20120201908A1, “METHOD OF TREATING BIPOLAR DISORDER OR DEPRESSION USING AN ANTIESTROGEN” (Lunera Equities, LLLP, priority 2009, published 2012).
# Experiments:
# [1] = tested on: symptoms of bipolar disorder (bipolar I); experiment: Pilot study Subject D: tamoxifen citrate added to bipolar medication, mood charts and psychiatrist visits; assay type: in vivo, human; conditions: to Day 153, tamoxifen 20-30 mg daily, reported by family, friends, relatives and subject
# Text: Subject D is a person with a family history of bipolar disorder. Although Subject D had symptoms spanning Asperger's Syndrome, Bipolar I, Obsessive-Compulsive Disorder, Oppositional Defiant Disorder and anti-social traits, bipolar I was the diagnosis for several reasons, including the fact that it was present on both sides of the family and the symptoms were better suited to a bipolar diagnosis.
# First visit: Day 1. Due to Subject D's extreme condition, past hospitalizations and the complicated mixture of medications, the psychiatrist spent approximately one hour with the subject. During this time, Subject D was informed about the possible side effects of tamoxifen citrate. Subject D signed the Informed Consent Form, and was given a supply of tamoxifen citrate. Subject D was also given a copy of the Gary Sach's Mood Chart for the subject and their mother to be filled out daily for the psychiatrist's weekly review.
# [2] = tested on: symptoms of bipolar disorder; conditions: Subject F; to Day 98; reported by family members and subject
# Text: In a preferred aspect, the patient fills out the mood chart on a regular basis and a family member, friend, roommate or clinical or institutional staff member who interacts with the patient on a regular basis, also records a parallel mood chart on a regular basis. […] In another aspect, a mood chart is started at the start of treatment with an antiestrogen.
# Subject F is a person who experienced a coronary three years prior to starting the study that their doctors blamed on stimulants used for ADD. Subject F had stents placed following the coronary. […] They maintain a job where they can do much of the work from home. It has been over a year since they were so severe they could not get out of bed or work. They have not had any extreme episodes in the immediate past. Subject F is nearsighted and has high blood pressure.
smiles,measurement,setting,value
"CC/C(=C(\c1ccccc1)c1ccc(OCCN(C)C)cc1)c1ccccc1.O=C(O)CC(O)(CC(=O)O)C(=O)O [Tamoxifen citrate, (Z)2-[4-(1,2-diphenyl-1-butenyl)phenoxy]-N,N-dimethylethanamine 2-hydroxy-1,2,3-propanetricarboxylate (1:1)]",daily functioning (synopsis),[1],surprising improvement in daily functioning
same,daily functioning (synopsis),[2],large improvement in daily functioning
